PubChem BioAssay AID743121 | NCATS – 2013
Assay: 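Knock-downs that sensitise breast cancer cells to camptothecin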 (primary screen). Cell system: MDA-MB-231 cells, a human breast cancer line. Reagents: single siRNA against human genes, 20 nM siRNA (0.8 pmol per well). Timing: 120 h (drug added 48 h after transfection, read 72 h later). Challenge: camptothecin 20 nM (about EC30) for 72 h; vehicle 0.1% DMSO in parallel plates. Measured: 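CellTiter-Glo ATP signal, scaled to control siRNA as percent viability; sensitisation given as log2 of untreated divided by camptothecin-treated viability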. Reading the numbers: log2 vehicle/camptothecin viability: higher = stronger sensitisation to camptothecin. Call rule: 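Each gene scored by redundant siRNA activity (RSA) over its individual siRNA ratios; a gene is called active at p < 0.001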.
Here is one part, drawn at random, of about 26,000 deposited reagents. 167 of all reagents (0.63%) were called active. 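Calls are per gene from RSA p-values that are not deposited; an individual active-marked siRNA can sensitise only weakly.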 Reagents against one gene are numbered here. Further read-outs or replicates are left out here.

GRK4 (G protein-coupled receptor kinase 4) #1 — log2 vehicle/camptothecin viability = -0.515; Outcome = inactive
GRK4 (G protein-coupled receptor kinase 4) #2 — log2 vehicle/camptothecin viability = 0.00974; Outcome = inactive
GRK4 (G protein-coupled receptor kinase 4) #3 — log2 vehicle/camptothecin viability = -0.598; Outcome = inactive
GRK4 (G protein-coupled receptor kinase 4) #4 — log2 vehicle/camptothecin viability = 0.547; Outcome = inactive
HYAL2 (hyaluronidase 2) #1 — log2 vehicle/camptothecin viability = -0.529; Outcome = inactive
HYAL2 (hyaluronidase 2) #2 — log2 vehicle/camptothecin viability = 0.419; Outcome = inactive
HYAL2 (hyaluronidase 2) #3 — log2 vehicle/camptothecin viability = -0.225; Outcome = inactive
HYAL2 (hyaluronidase 2) #4 — log2 vehicle/camptothecin viability = 0.0981; Outcome = inactive
RHO (rhodopsin) #1 — log2 vehicle/camptothecin viability = -0.673; Outcome = inactive
RHO (rhodopsin) #2 — log2 vehicle/camptothecin viability = 0.105; Outcome = inactive
RHO (rhodopsin) #3 — log2 vehicle/camptothecin viability = -0.212; Outcome = inactive
RHO (rhodopsin) #4 — log2 vehicle/camptothecin viability = -0.385; Outcome = inactive
NMUR1 (neuromedin U receptor 1) #1 — log2 vehicle/camptothecin viability = -0.258; Outcome = inactive
NMUR1 (neuromedin U receptor 1) #2 — log2 vehicle/camptothecin viability = -0.434; Outcome = inactive
NMUR1 (neuromedin U receptor 1) #3 — log2 vehicle/camptothecin viability = -0.538; Outcome = inactive
NMUR1 (neuromedin U receptor 1) #4 — log2 vehicle/camptothecin viability = -0.138; Outcome = inactive
GPC2 (glypican 2) #1 — log2 vehicle/camptothecin viability = 0.371; Outcome = inactive
GPC2 (glypican 2) #2 — log2 vehicle/camptothecin viability = 0.449; Outcome = inactive
GPC2 (glypican 2) #3 — log2 vehicle/camptothecin viability = 0.526; Outcome = inactive
GPC2 (glypican 2) #4 — log2 vehicle/camptothecin viability = -0.158; Outcome = inactive
P2RY14 (purinergic receptor P2Y14) #1 — log2 vehicle/camptothecin viability = -0.153; Outcome = inactive
P2RY14 (purinergic receptor P2Y14) #2 — log2 vehicle/camptothecin viability = 0.384; Outcome = inactive
P2RY14 (purinergic receptor P2Y14) #3 — log2 vehicle/camptothecin viability = 0.596; Outcome = inactive
P2RY14 (purinergic receptor P2Y14) #4 — log2 vehicle/camptothecin viability = -0.186; Outcome = inactive
HSD17B6 (hydroxysteroid 17-beta dehydrogenase 6) #1 — log2 vehicle/camptothecin viability = -0.0457; Outcome = inactive
HSD17B6 (hydroxysteroid 17-beta dehydrogenase 6) #2 — log2 vehicle/camptothecin viability = 0.602; Outcome = inactive
HSD17B6 (hydroxysteroid 17-beta dehydrogenase 6) #3 — log2 vehicle/camptothecin viability = -0.466; Outcome = inactive
HSD17B6 (hydroxysteroid 17-beta dehydrogenase 6) #4 — log2 vehicle/camptothecin viability = -0.237; Outcome = inactive
RNF113A (ring finger protein 113A) #1 — log2 vehicle/camptothecin viability = -0.00451; Outcome = inactive
RNF113A (ring finger protein 113A) #2 — log2 vehicle/camptothecin viability = 1.9; Outcome = inactive
RNF113A (ring finger protein 113A) #3 — log2 vehicle/camptothecin viability = 0.101; Outcome = inactive
RNF113A (ring finger protein 113A) #4 — log2 vehicle/camptothecin viability = -0.335; Outcome = inactive
FAT1 (FAT atypical cadherin 1) #1 — log2 vehicle/camptothecin viability = -0.0577; Outcome = inactive
FAT1 (FAT atypical cadherin 1) #2 — log2 vehicle/camptothecin viability = -0.0849; Outcome = inactive
FAT1 (FAT atypical cadherin 1) #3 — log2 vehicle/camptothecin viability = -0.495; Outcome = inactive
FAT1 (FAT atypical cadherin 1) #4 — log2 vehicle/camptothecin viability = -0.0465; Outcome = inactive

A stretch of the results above, for reference:
RHO (rhodopsin) #4 — log2 vehicle/camptothecin viability = -0.385; Outcome = inactive
NMUR1 (neuromedin U receptor 1) #1 — log2 vehicle/camptothecin viability = -0.258; Outcome = inactive
NMUR1 (neuromedin U receptor 1) #2 — log2 vehicle/camptothecin viability = -0.434; Outcome = inactive
NMUR1 (neuromedin U receptor 1) #3 — log2 vehicle/camptothecin viability = -0.538; Outcome = inactive
